Test results published in PubChem BioAssay AID1347131 (National Center for Advancing Translational Sciences (NCATS), 2019).
About 2,000 (0.49%) of roughly 410,000 compounds were called active. The shares of active, inactive and inconclusive entries below differ from those in the screen. The call rests on the fitted dose curve; tested in HEK293 reporter line. Potencies beside an inconclusive call are fits to weak or partial responses and may not hold up.
Potency means the concentration at half of the fitted maximal effect.

Assay: qHTS Assay for Foot and Mouth Disease Virus Antivirals: Primary Screen against the MLPCN compound library; further: nearly all actives have a fitted effect of over 55% in size
Settings: FMDV antiviral cell-based qHTS; activity, negative = inhibition: at 57.9 µM (top of the series)
For NC[C@@H]1O[C@H](C23CC4CC(CC(C4)C2)C3)Cc2c1ccc(O)c2O, the Potency was inconclusive: 39.8 µM [inhibitor, partial curve, poor fit].
In the case of Cn1nc(-c2ccc(OCC(=O)Nc3cccnc3)cc2)c2ccccc2c1=O, the Potency is reported as inconclusive: 35.5 µM [inhibitor, partial curve, poor fit].
For C/C(=N\NC(=O)c1ccc(F)cc1)c1ccccn1, the Potency was inconclusive: 15.8 µM [inhibitor, single point].
In the case of O=C(CC1CCCC1)Nc1ccc(Cl)c(S(=O)(=O)N2CCOCC2)c1, the Potency is reported as inconclusive: 31.6 µM [inhibitor, partial curve, poor fit].
For CCc1ccc(N(CC)C(=O)c2ccc3c(=O)n4c(nc3c2)CCCCC4)cc1, the Potency was inconclusive: 39.8 µM [inhibitor, partial curve, poor fit].
In the case of COc1ccc2c(c1)c1c(c(=O)n(-c3ccccc3C)c(=O)n1CC(=O)NCc1ccc(C)cc1)n2C, the Potency is reported as inconclusive: 28.2 µM [inhibitor, partial curve, poor fit].
For O=C(Nc1cc(C(F)(F)F)cc(C(F)(F)F)c1)Nc1cnn(-c2ccc([N+](=O)[O-])cc2)c1C(F)(F)F, the Potency was inconclusive: 5.01 µM [inhibitor, full curve, poor fit].
For Cn1c(=O)[nH]c(=O)c2[nH]c(N(Cc3ccccc3)Cc3ccccc3)nc21, the Potency was inconclusive: 39.8 µM [inhibitor, partial curve, poor fit].
With CCn1c(C(=O)N2CCC(C(=O)NCc3ccc4c(c3)OCO4)CC2)cc2sccc21 the Potency was inconclusive: 31.6 µM [inhibitor, partial curve, poor fit].
With O=C(CNS(=O)(=O)c1ccc(Br)s1)N1CCN(c2ccc(F)cc2)CC1 the Potency was inconclusive: 14.1 µM [inhibitor, partial curve, poor fit].
With COc1cccc(C(=O)/C=C/Nc2cccc(O)c2)c1 the Potency was inconclusive: 12.6 µM [inhibitor, partial curve, poor fit].
With O=C(Nc1cccc(-c2ccc(N3CCCCC3)nn2)c1)c1ccc(Br)o1 the Potency was inconclusive: 15.8 µM [inhibitor, single point].
With O=C(NCCS(=O)(=O)N1CCN(c2cccc(Cl)c2)CC1)c1ccc2c(c1)OCO2 the Potency was inconclusive: 22.4 µM [inhibitor, partial curve, poor fit].
With COc1ccc(N(Cc2cc(=O)[nH]c3ccccc23)C(=O)CCl)cc1 the Potency was inconclusive: 20 µM [inhibitor, partial curve, poor fit].
In the case of O=C(NCCc1ccccc1)c1ccc(CSc2nc3cccnc3n2Cc2ccccc2)cc1, the Potency is reported as inconclusive: 31.6 µM [inhibitor, partial curve, poor fit].
With CCOc1ccc(-c2nnc(SCC(=O)Nc3ccc4c(c3)c3ccccc3n4CC)n2N)cc1 the Potency was inconclusive: 14.1 µM [inhibitor, partial curve].
With COc1ccc(-c2nc3sc(CCNC(=O)C(C)(C)C)c(C)n3n2)cc1 the Potency was inconclusive: 17.8 µM [inhibitor, single point].
For CCN(CC)S(=O)(=O)c1cccc(NC(=O)Nc2cccc(C(F)(F)F)c2)c1, the Potency was inconclusive: 17.8 µM [inhibitor, partial curve, poor fit].
With O=C1c2ccccc2C(=O)C1c1ccncc1 the Potency was inconclusive: 22.4 µM [inhibitor, single point].
With COc1ccc(C(C[N+](=O)[O-])C2(c3ccc(OC)c(OC)c3)C(=O)c3ccccc3C2=O)cc1 (stereo unspecified) the Potency was inconclusive: 39.8 µM [inhibitor, single point].
With CN(C(=O)c1ccccc1)c1nc2ccccc2s1 the Potency was inconclusive: 17.8 µM [inhibitor, single point].
In the case of O=C(Nc1ccccn1)c1ccc(Cl)c(S(=O)(=O)N2CCc3ccccc32)c1, the Potency is reported as inconclusive: 25.1 µM [inhibitor, single point].
With CCOC(=S)SCC(=O)Nc1ncc(C)s1 the Potency was inconclusive: 25.1 µM [inhibitor, partial curve, poor fit].
In the case of CCOc1ccc(-n2c(=O)c3sccc3n(Cc3ccc(C)cc3)c2=O)cc1, the Potency is reported as inconclusive: 15.8 µM [inhibitor, partial curve].
In the case of O=c1c2ccccc2nc(SCc2nc3ccccc3s2)n1CCCO, the Potency is reported as inconclusive: 39.8 µM [inhibitor, single point].
For Cc1ccc(S(=O)(=O)/C(=C/Cl)NC(=O)c2ccccc2)cc1, the Potency was inconclusive: 14.1 µM [inhibitor, partial curve, poor fit].
With Cn1c(=O)oc2cc(S(=O)(=O)N3CCCC(C(=O)N4CCN(c5ccccc5F)CC4)C3)ccc21 (stereo unspecified) the Potency was inconclusive: 20 µM [inhibitor, partial curve, poor fit].
In the case of CC(=O)NC1=C(N(C)C2CCS(=O)(=O)C2)C(=O)c2ccccc2C1=O (stereo unspecified), the Potency is reported as inconclusive: 12.6 µM [inhibitor, partial curve, poor fit].
For COC(C/C=C/C(=O)[C@H](C)OCc1ccccc1)OC, the Potency was inconclusive: 35.5 µM [inhibitor, partial curve, poor fit].
With CC(=O)NC12CC3CC(C1)CC(C(=O)N(C)CC(=O)Nc1ccc(F)c(F)c1F)(C3)C2 the Potency was inconclusive: 12.6 µM [inhibitor, partial curve].
In the case of C/C(=N/N=C/c1ccc(N(C)C)cc1)c1ccccc1, the Potency is reported as inconclusive: 10 µM [inhibitor, partial curve, poor fit].
In the case of Cc1ccccc1OCc1nnc(SCc2cc(=O)c3ccc(C)c(C)c3[nH]2)n1C, the Potency is reported as inconclusive: 17.8 µM [inhibitor, single point].
With Cc1ccc(NC(=O)c2ccccc2F)nc1 the Potency was inconclusive: 39.8 µM [inhibitor, single point].
In the case of CCOC(=O)c1c(C)oc2ncnc(N3CCN(c4ccccc4)CC3)c12, the Potency is reported as inconclusive: 28.2 µM [inhibitor, partial curve, poor fit].
With O=C(c1c[nH]c(C(=O)N2CCN(c3ccccc3F)CC2)c1)c1cccc(Cl)c1Cl the Potency was inconclusive: 7.08 µM [inhibitor, partial curve, poor fit].
In the case of O=C1c2ccccc2S(=O)(=O)c2cc(N3CCOCC3)ccc21, the Potency is reported as inconclusive: 17.8 µM [inhibitor, single point].
With COC(=O)c1sccc1N/N=C/c1cccc(OC)c1O the Potency was inconclusive: 10 µM [inhibitor, partial curve, poor fit].
With CN(C)c1ccc(C=c2c3ccccc3n3c2c2ccccc2[n+]3C)cc1 the Potency was inconclusive: 25.1 µM [inhibitor, partial curve, poor fit].
With Cc1nc2scc(-c3ccccc3)c2c(=O)n1N=C1C=CC(=O)C=C1 the Potency was inconclusive: 28.2 µM [inhibitor, partial curve, poor fit].
For Cc1cc(C(=O)CN2C(=O)c3ccccc3S2(=O)=O)c(C)n1CC1CCCO1 (stereo unspecified), the Potency was inconclusive: 0.282 µM [inhibitor, full curve, poor fit].
With CC1CCc2cc(F)ccc2N1C(=O)CCl (stereo unspecified) the Potency was inconclusive: 14.1 µM [inhibitor, partial curve, poor fit].
In the case of Cc1cccc(Cc2c(C)nc3nc(SCC(=O)NCc4ccc(F)cc4)nn3c2C)c1, the Potency is reported as inconclusive: 28.2 µM [inhibitor, partial curve, poor fit].
For CSc1ccccc1NC(=O)CN(C)CC(=O)c1[nH]c(C)c(C(C)=O)c1C, the Potency was inconclusive: 35.5 µM [inhibitor, single point].
With O=C(NCc1cccc(Cl)c1)c1cccc(OC2CCN(C(=O)C3CC3)CC2)c1 the Potency was inconclusive: 15.8 µM [inhibitor, partial curve, poor fit].
In the case of CCOC(=O)/C(=C\c1ccc(Cl)cc1)c1nc2sc(C)c(C)c2c(=O)[nH]1, the Potency is reported as inconclusive: 10 µM [inhibitor, partial curve, poor fit].
For O=[N+]([O-])c1cc(-c2nnc(Nc3ccc(O)cc3)c3ccccc23)ccc1N1CCOCC1, the Potency was inconclusive: 20 µM [inhibitor, partial curve, poor fit].
With CCCOC(=O)c1ccc(-c2ccc(C=O)o2)cc1 the Potency was inconclusive: 12.6 µM [inhibitor, single point].
For CC1(C)CC2CC(C)(CN2C(=O)COC(=O)Cn2[nH]c(=O)c3ccccc3c2=O)C1 (stereo unspecified), the activity, negative = inhibition was inconclusive: -33.3% [inhibitor].
For CCN1CCN(c2cc(-c3ccccc3)nc3cc(-c4cccc(F)c4)nn23)CC1, the Potency was “inactive”.
For O=C(Nc1sc2c(c1C(=O)O)CCCCC2)c1ccco1, the Potency was inconclusive: 12.6 µM [inhibitor, single point].
With CCOC(=O)c1cc(-c2ccccc2)n(CCC(=O)Nc2nc3c(C)cccc3s2)c1C the Potency was inconclusive: 14.1 µM [inhibitor, partial curve].
In the case of CCOC(=O)C1=C(C)N=c2s/c(=C\c3ccc(OCC(=O)O)cc3)c(=O)n2C1c1ccc(OC(C)C)cc1 (stereo unspecified), the Potency is reported as inconclusive: 39.8 µM [inhibitor, partial curve, poor fit].
In the case of COc1cc(CNCCCN2CCOCC2)cc(Br)c1OCc1ccc(Cl)cc1, the Potency is reported as inconclusive: 39.8 µM [inhibitor, partial curve, poor fit].
In the case of COC(=O)C(Sc1ccc(Cl)cc1)C1SC(=S)N(Cc2ccccc2)C1=O (stereo unspecified), the Potency is reported as inconclusive: 31.6 µM [inhibitor, partial curve, poor fit].
For COC(=O)c1ccc2nc(-c3ccc(C#N)cc3)c(Cc3ccsc3)n2c1, the Potency was “inactive”.
For CC(/C=C1\SC(=O)N(CCCC(=O)O)C1=O)=C\c1ccccc1, the Potency was inconclusive: 0.891 µM [inhibitor, full curve, poor fit].
